This is an account of results in ChEMBL document CHEMBL3862026, “Synthesis and biological evaluation of ranitidine analogs as multiple-target-directed cognitive enhancers for the treatment of Alzheimer's disease” (Bioorg Med Chem Lett, 2016).

Sequences of proteins named here, by UniProt entry; tags and fusion partners are left off.
UniProt P81908, whole entry: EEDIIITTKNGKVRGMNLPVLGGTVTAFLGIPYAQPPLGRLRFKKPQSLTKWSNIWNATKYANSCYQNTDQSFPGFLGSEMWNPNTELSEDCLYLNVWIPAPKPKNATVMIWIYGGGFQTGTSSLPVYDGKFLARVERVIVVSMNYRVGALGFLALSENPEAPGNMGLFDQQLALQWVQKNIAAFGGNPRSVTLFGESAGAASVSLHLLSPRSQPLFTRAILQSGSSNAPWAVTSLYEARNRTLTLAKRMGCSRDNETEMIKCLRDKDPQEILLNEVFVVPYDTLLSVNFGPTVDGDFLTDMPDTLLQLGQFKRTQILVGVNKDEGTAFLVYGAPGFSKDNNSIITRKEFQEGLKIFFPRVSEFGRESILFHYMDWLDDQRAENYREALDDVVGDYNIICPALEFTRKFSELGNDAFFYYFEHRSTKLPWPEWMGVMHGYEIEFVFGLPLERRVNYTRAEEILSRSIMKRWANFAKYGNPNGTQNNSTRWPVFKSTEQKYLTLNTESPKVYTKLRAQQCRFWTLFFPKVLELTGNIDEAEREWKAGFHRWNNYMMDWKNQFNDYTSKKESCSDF

This assay deals with Cholinesterase (Equus caballus, UniProt P81908). Briefly: Inhibition of equine serum BuChE using butyrylthiocholine as substrate preincubated for 8 mins followed by substrate addition by Ellman's method. (DTNB colorimetry detects thiols as they appear.)

In general, IC50 refers to the concentration needed to halve the response being measured. Low values mean greater potency, high ones weaker potency. With `CN(C)Cc1ccc(CSCCN2C(=O)c3cccc([N+](=O)[O-])c3C2=O)o1`, the IC50 is more than 50 µM.
